Results on 1 substance are retold here after PMC6754381.

Amino acid sequences for entries named in this document (tags omitted). Residues count along the entry.
UniProt P09055, residues 21-798: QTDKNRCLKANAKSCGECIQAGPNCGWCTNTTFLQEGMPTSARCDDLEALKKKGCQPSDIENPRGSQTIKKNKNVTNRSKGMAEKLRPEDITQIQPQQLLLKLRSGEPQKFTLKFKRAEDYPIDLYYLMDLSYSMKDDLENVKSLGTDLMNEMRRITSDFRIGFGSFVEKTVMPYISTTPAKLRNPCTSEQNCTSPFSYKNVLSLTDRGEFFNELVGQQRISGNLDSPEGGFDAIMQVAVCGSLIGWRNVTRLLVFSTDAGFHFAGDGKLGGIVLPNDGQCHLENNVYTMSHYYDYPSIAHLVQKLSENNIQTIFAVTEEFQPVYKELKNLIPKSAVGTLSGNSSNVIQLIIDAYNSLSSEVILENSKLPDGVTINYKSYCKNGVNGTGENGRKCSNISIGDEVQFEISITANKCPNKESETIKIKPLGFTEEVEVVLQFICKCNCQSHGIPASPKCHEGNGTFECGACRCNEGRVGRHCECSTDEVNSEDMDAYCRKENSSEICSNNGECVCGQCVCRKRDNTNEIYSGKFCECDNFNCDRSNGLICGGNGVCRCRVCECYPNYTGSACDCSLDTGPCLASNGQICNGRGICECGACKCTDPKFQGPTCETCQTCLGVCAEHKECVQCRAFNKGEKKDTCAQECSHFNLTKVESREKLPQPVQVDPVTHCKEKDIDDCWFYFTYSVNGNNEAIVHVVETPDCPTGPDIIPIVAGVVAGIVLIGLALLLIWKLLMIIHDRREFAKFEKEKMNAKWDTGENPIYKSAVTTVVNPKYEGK

This assay deals with T1, Dab2, endogenous in mouse neutrophils (mouse (endogenous in bone marrow-derived neutrophils)) (UniProt P98078).
T1 sequence: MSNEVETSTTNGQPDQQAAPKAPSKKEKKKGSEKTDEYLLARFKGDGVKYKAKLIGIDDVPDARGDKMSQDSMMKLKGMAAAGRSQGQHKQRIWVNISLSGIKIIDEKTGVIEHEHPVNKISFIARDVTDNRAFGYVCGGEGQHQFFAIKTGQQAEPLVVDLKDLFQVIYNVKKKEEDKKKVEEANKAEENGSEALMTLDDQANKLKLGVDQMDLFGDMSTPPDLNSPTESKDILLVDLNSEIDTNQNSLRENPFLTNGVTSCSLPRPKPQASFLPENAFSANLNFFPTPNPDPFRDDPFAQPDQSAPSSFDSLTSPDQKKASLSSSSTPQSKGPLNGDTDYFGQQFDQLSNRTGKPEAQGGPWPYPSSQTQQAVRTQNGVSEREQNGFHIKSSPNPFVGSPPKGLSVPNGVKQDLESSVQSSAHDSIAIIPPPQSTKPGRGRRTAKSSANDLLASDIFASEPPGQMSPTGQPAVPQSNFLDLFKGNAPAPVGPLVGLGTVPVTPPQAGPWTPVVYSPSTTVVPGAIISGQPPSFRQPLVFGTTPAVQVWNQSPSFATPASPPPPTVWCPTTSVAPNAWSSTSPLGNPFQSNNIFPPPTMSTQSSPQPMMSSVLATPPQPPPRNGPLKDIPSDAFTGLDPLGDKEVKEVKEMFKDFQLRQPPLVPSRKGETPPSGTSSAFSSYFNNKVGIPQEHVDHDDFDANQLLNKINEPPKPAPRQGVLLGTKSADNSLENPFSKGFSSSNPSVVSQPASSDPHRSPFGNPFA
The experiment in a line: co-IP; lysates of cultured mouse bone marrow-derived neutrophils (untreated, control conditioned medium, conditioned medium of IFNλ-overexpressing RPE cells 1:1 for 6 h, or recombinant IFNλ 200 U/mL for 2 h); 70 ug lysate precipitated with 10 ug immobilised LCN-2 or Dab2 antibody at 4 °C overnight (Pierce Co-Immunoprecipitation Kit); western blot; normal rabbit IgG as negative control.

These are yes or no findings as the source states them, for the method shown. Binding seen in cells or lysates may run through a third protein. Some entries that bind do so weakly or less than the wild type.

With “Integrin β1, endogenous in mouse neutrophils (from UniProt P09055 21-798) (receptor)”, the binding result is recorded as “binds”.
